Test results as given in PubChem BioAssay AID504467 (National Center for Advancing Translational Sciences (NCATS), 2011).
In all, about 330,000 compounds went through this assay and about 7,700 (2.3%) were called active. Inconclusive means that the source gave no clear call. Such entries were picked first, then a sample of the others. Calls come from the whole dose curve; as a rule, active = well fitted inhibition curve with a large enough effect; inconclusive = small, poorly fitted or top-dose-only effect, or effect the other way; inactive = flat fitted curve, though single readings scatter. Potencies of inconclusive entries are doubtful fits and often do not repeat.
Potency is the fitted concentration of half-maximal effect.

Test: qHTS screen for small molecules that inhibit ELG1-dependent DNA repair in human embryonic kidney (HEK293T) cells expressing luciferase-tagged ELG1; note: nearly all actives have a fitted effect of over 55% in size
Conditions: HEK293T ELG1-luciferase reporter, luminescence, 16 h, DNA damage induced by 5-fluorouridine; series mostly up to 46.1 µM
In short: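 DMSO vehicle served as the neutral condition. Each well held 2,000 cells given 5-fluorouridine plus compound; after 16 hr at 37 °C/5% CO2, ONE-Glo was added and luciferase measured 30 min later.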
In the case of COC(=O)C1=C(C)NC(C)=C(C(=O)OC)C1c1ccc(-c2cc(Cl)ccc2Cl)o1, the Potency is reported as “inactive”.
With CS(=O)(=O)c1ccc2nc(NC(=O)CCNC(=O)c3ccc(Cl)cc3)sc2c1 the Potency was inconclusive: 11.6 µM [activator, partial curve, poor fit].
In the case of O=C(NCCCCCCNC(=O)c1ccc(Br)s1)c1ccc(Br)s1, the Potency is reported as “inactive”.
For COc1ccc(S(=O)(=O)c2cnc3ccc(OC)cc3c2N2CCC3(CC2)OCCO3)cc1, the Potency was active: 23.1 µM.
In the case of O=C(O)c1cc(N2C(=O)C3C4C=CC(C4)C3C2=O)ccc1N1CCOCC1 (configuration not stated), the Potency is reported as inconclusive: 29.1 µM [activator, partial curve, poor fit].
In the case of COc1ccc(C(=O)O)cc1S(=O)(=O)NC(C)C, the Potency is reported as inconclusive: 14.6 µM [activator, partial curve, poor fit].
In the case of COc1cc(O)oc1C=Nc1ccccc1, the Potency is reported as “inactive”.
In the case of O=C1C(Cc2ccc(F)cc2)SC(=Nc2ccccc2)N1c1ccccc1 (configuration not stated), the Potency is reported as “inactive”.
With COc1ccc(-c2cc(C)no2)cc1S(=O)(=O)N1CCCCC1 the Potency was “inactive”.
For Cc1nc(N2CCN(c3ccccn3)CC2)c2c(C)c(C(=O)N3CCN(c4cccc(Cl)c4)CC3)sc2n1, the Potency was active: 11.6 µM.
In the case of CC(=O)COc1nc2c(c(-c3ccco3)c1C#N)CCc1ccccc1-2, the Potency is reported as active: 8.2 µM.
For O=C(NCCN1CCOCC1)c1ccc(Cl)c(Cl)c1, the Potency was “inactive”.
In the case of O=C(CN1CCOCC1)N(c1ccccc1)c1ccc2ccccc2c1, the Potency is reported as “inactive”.
With COC(=O)c1ccc(C(=O)N2CCCC(Nc3ccc(C(C)C)cc3)C2)nc1 (configuration not stated) the Potency was “inactive”.
In the case of COC(C(=O)Nc1ccnn1C1CCN(Cc2ccc(CO)o2)CC1)c1ccccc1 (configuration not stated), the Potency is reported as “inactive”.
For COc1ccc(OCCN(C)C(=O)c2cccc(S(=O)(=O)N(C)c3ccccc3)c2)cc1, the Potency was inconclusive: 20.6 µM [inhibitor, single point].
In the case of CN(C(=O)CSc1nnc(NCc2ccccc2)s1)C1CCS(=O)(=O)C1 (configuration not stated), the Potency is reported as inconclusive: 20.6 µM [activator, partial curve, poor fit].
For Cc1ccc(Nc2nc(OC(C(F)(F)F)C(F)(F)F)nc(N3CCOCC3)n2)cc1, the Potency was inconclusive: 23.1 µM [inhibitor, partial curve].
With CCOC(=O)c1oc2ccc(/C=N/O)c(Cl)c2c1C the Potency was inconclusive: 9.2 µM [activator, partial curve, poor fit].
For O=S1(=O)CC(O)C(N2CCC(c3ccccc3)CC2)C1 (configuration not stated), the Potency was inconclusive: 25.9 µM [activator, single point].
With O=C(O)COc1ccc2c(c1)O/C(=C\c1ccco1)C2=O the Potency was “inactive”.
For Cc1ccc(S(=O)(=O)CC(=O)N2CCCC2)cc1, the Potency was inconclusive: 18.4 µM [activator, single point].
In the case of CCN=C1SC(CC(=O)NC(C)c2ccccc2)C(=O)N1CC (configuration not stated), the Potency is reported as “inactive”.
With Cc1c(Cc2ccccc2)c(=O)oc2cc(OCC(=O)N3CCC(C(=O)O)CC3)ccc12 the Potency was inconclusive: 0.326 µM [inhibitor, partial curve].
In the case of COc1ccc(Cl)cc1N1C(=NC(=O)C2CCCO2)SC2CS(=O)(=O)CC21 (configuration not stated), the Potency is reported as “inactive”.
With CC1NC(=S)N(Cc2ccccc2)C1=O (configuration not stated) the Potency was “inactive”.
With Cc1ccc2c(c1)[nH]c1c(=O)n(Cc3ccccn3)cnc12 the Potency was inconclusive: 16.4 µM [activator, single point].
With C=CCSc1nc(-c2ccc(OC)cc2)c(C#N)c(=O)n1CC=C the Potency was “inactive”.
In the case of CC(C)c1ccc(-c2cc(C(=O)N3N=C(C(F)F)CC3(O)C(F)F)c3ccccc3n2)cc1 (configuration not stated), the Potency is reported as inconclusive: 5.8 µM [activator, full curve].
For CCC(=O)Nc1c(S(=O)(=O)c2ccccc2)c2nc3ccccc3nc2n1Cc1ccccc1, the Potency was inconclusive: 25.9 µM [inhibitor, partial curve].
In the case of COc1ccccc1C(C)NC(=O)c1ccc(C)o1 (configuration not stated), the Potency is reported as inconclusive: 18.4 µM [inhibitor, single point].
With COc1cc(/C=N\NC(=O)C2CC3C=CC2C3)ccc1O (configuration not stated) the Potency was “inactive”.
For Cn1c(SCCCC(=O)c2ccc(Br)cc2)nnc1-c1ccncc1, the Potency was inconclusive: 16.4 µM [inhibitor, single point].
With O=C1N/C(=C\c2nc3ccccc3s2)c2ccccc21 the Potency was inconclusive: 0.461 µM [activator, full curve].
For CC(C)CC(=O)Nc1nc(=S)ss1, the Potency was “inactive”.
For COc1ccc(OC)c(CCNC(=O)Cn2nc(C)c3c(C)n(-c4ccc(C)cc4)nc3c2=O)c1, the Potency was inconclusive: 0.366 µM [inhibitor, full curve].
In the case of O=C(CNS(=O)(=O)c1ccc(F)c(Cl)c1)NCCc1ccccc1, the Potency is reported as inconclusive: 11.2 µM [inhibitor, partial curve, poor fit].
In the case of Oc1ccccc1N=N/C(=N/Nc1ccccc1O)c1ccccc1, the Potency is reported as “inactive”.
In the case of CCOc1ccc(/C=C/C(=O)Nc2ccccc2C(F)(F)F)cc1, the Potency is reported as inconclusive: 16.4 µM [activator, single point].
In the case of CC(=O)Nc1ccc(OCC(=O)NCCc2ccccc2)cc1, the Potency is reported as inconclusive: 14.6 µM [activator, partial curve, poor fit].
In the case of O=C(c1ccc(F)cc1)N1CCC(c2ccccc2)C1 (configuration not stated), the Potency is reported as inconclusive: 23.1 µM [activator, partial curve].
With Cc1ccc(NC(=O)C(=O)NCC2OCCc3ccccc32)cc1 (configuration not stated) the Potency was inconclusive: 16.4 µM [activator, partial curve].
With C/C(=N\O)c1noc(C)c1C(=O)Nc1nccs1 the Potency was “inactive”.
In the case of Cc1sc2c(c1C)C(=O)NC(c1cccc(O)c1)N2 (configuration not stated), the Potency is reported as inconclusive: 29.1 µM [activator, partial curve, poor fit].
With CC1CCCCN1S(=O)(=O)c1ccc(S(=O)(=O)N(Cc2ccccc2)Cc2ccco2)cc1 (configuration not stated) the Potency was inconclusive: 29.1 µM [inhibitor, single point].
For N#Cc1c(NC2CCCCC2)nc(-c2ccco2)c2c1CCCC2, the Potency was “inactive”.
In the case of COc1cc(C(=O)Nc2ccc(S(=O)(=O)N3CCCCC3C)cc2)cc(OC)c1OC (configuration not stated), the Potency is reported as inconclusive: 18.4 µM [inhibitor, single point].
For O=C(NCc1ccc2c(c1)OCO2)C(=O)NCC(c1ccco1)N1CCN(c2ccccc2)CC1 (configuration not stated), the Potency was inconclusive: 18.3 µM [inhibitor, single point].
With CCOc1cc(C2/C(=C(/O)c3ccc(S(=O)(=O)N4CCCCC4)cc3)C(=O)C(=O)N2CCOC)ccc1O (configuration not stated) the Potency was inconclusive: 18.3 µM [activator, partial curve, poor fit].
For CC1C(=O)C(C)C(c2ccc(Br)cc2)NC1c1ccc(Br)cc1 (configuration not stated), the Potency was inconclusive: 25.9 µM [activator, single point].
With O=C(Cc1cccs1)N/N=C\c1ccc([N+](=O)[O-])s1 the Potency was active: 14.6 µM.
In the case of COc1ccccc1OCCCC(=O)Nc1ccc2c(c1)OCCO2, the Potency is reported as inconclusive: 25.9 µM [activator, partial curve, poor fit].
In the case of CC(C)c1ccc(CNC(=O)C2CCCN2S(=O)(=O)c2ccccc2)cc1 (configuration not stated), the Potency is reported as inconclusive: 9.2 µM [inhibitor, partial curve, poor fit].
For COc1ccc(CNC(=S)NC(C)CCc2ccccc2)cc1 (configuration not stated), the Potency was “inactive”.
For CC1(CC(=O)N/N=C/c2ccc(-c3ccc(Cl)cc3)o2)OCCO1, the Potency was inconclusive: 16.4 µM [activator, single point].
In the case of Cc1ccc(NC(=O)c2cc3ccccc3o2)cc1S(=O)(=O)N(C)C, the Potency is reported as inconclusive: 2.91 µM [activator, partial curve].
For CSCC[C@H](NC(=O)c1ccc2c(c1)OCO2)c1nnc2ccccn12, the Potency was inconclusive: 16.4 µM [activator, partial curve].
In the case of Cc1ccc(NC(=O)C2OCCc3ccccc32)cc1C (configuration not stated), the Potency is reported as inconclusive: 20.6 µM [activator, single point].
With O=C(COc1ccccc1)NS(=O)(=O)c1ccc(Cl)cc1 the Potency was “inactive”.
With CC(C)C[C@H](NC(=O)[C@H](Cc1ccccc1)n1c(=O)[nH]c2ccccc2c1=O)C(=O)N1CCC[C@@H]1C(=O)O the Potency was “inactive”.
For Oc1ccc(Cl)cc1N=Nc1ccccc1, the Potency was inconclusive: 16.4 µM [activator, single point].
In the case of Cc1ccccc1C(C)NC(=O)COC(=O)Cn1cc(C(F)(F)F)ccc1=O (configuration not stated), the Potency is reported as inconclusive: 35.5 µM [activator, single point].
For COc1ccc(C(C#N)c2nc3ccccc3nc2Cl)cc1 (configuration not stated), the Potency was inconclusive: 7.3 µM [inhibitor, partial curve, poor fit].
For Cc1cnc(=O)[nH]c1SCC(=O)c1ccc(F)cc1, the Potency was inconclusive: 29.1 µM [activator, single point].
In the case of FC(F)Sc1ccc(NC(=S)NCc2ccccc2)cc1, the Potency is reported as “inactive”.
In the case of O=C(Nc1ccccc1)C1=C[C@H](c2csc3ccccc23)C[C@H](OCc2ccc(CO)cc2)O1, the Potency is reported as inconclusive: 16.4 µM [inhibitor, partial curve].
With O=C(CSc1nnc(-c2cccnc2)n1Cc1ccco1)Nc1nc(-c2ccc(F)cc2)cs1 the Potency was active: 20.6 µM.
In the case of COc1cccc(-c2nnc(SCC(=O)Nc3ccc4c(c3)OCCO4)n2Cc2ccco2)c1, the Potency is reported as inconclusive: 16.4 µM [inhibitor, single point].
For Cc1cc(=O)oc2cc(NC(=O)c3cccc(F)c3)ccc12, the Potency was inconclusive: 2.59 µM [activator, partial curve].
In the case of N#Cc1ccccc1NC(=O)CSc1nnc(-c2ccncc2)o1, the Potency is reported as “inactive”.
For COC(=O)CNC(=O)Cn1cnc2sc(C)c(S(=O)(=O)N3CCC(C)CC3)c2c1=O, the Potency was inconclusive: 29.1 µM [activator, single point].
For Cc1noc(C)c1COc1ccc(C(=O)NCC2CCCO2)cc1 (configuration not stated), the Potency was inconclusive: 14.6 µM [activator, partial curve, poor fit].
